Values joined by “and” are separate entries in the source; they are usually repeats but may differ in a detail not shown here. Identical values can stand only once. About 7,500 (2.1%) of roughly 360,000 compounds were called active. Inconclusive means that the source gave no clear call. Such entries were picked first, then a sample of the others. The call rests on the fitted dose curve; in most records, active means well fitted inhibition curve with a large enough effect; inconclusive means small, poorly fitted or top-dose-only effect, or effect the other way; inactive means flat fitted curve, though single readings scatter. Potencies beside an inconclusive call are fits to weak or partial responses and may not hold up.
Assay: Nrf2 qHTS screen for inhibitors; further: nearly all actives have a fitted effect of over 60% in size
Conditions: A549 ARE-Fluc reporter, luciferase luminescence, 18-24 h; activity change, negative = inhibition: at 46 µM (top of the series)
Summary of the method: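 Nrf2 function is reported as luminescence of an ARE-controlled luciferase in A549 cells. Compounds were tested at several concentrations, and a CellTiter-Fluor read on the same wells flagged cytotoxicity.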
On the % scale 0 is the no-effect control and ±100 the full control effect; potency means the concentration at half of the fitted maximal effect.

SMILES	Potency	activity change, negative = inhibition
O=C1NC(=S)S/C1=C\c1cccc([N+](=O)[O-])c1	active: 18.4 µM	
Cc1cccc(C)c1NC(=O)C(=O)NCC(c1cccnc1)N1CCc2ccccc21 (stereo unspecified)		inactive: 22.6%
O=C(C1CCC(Cn2c(=O)c3sccc3n(Cc3ccccc3F)c2=O)CC1)N1CCOCC1 (stereo unspecified)		inactive: -6.33%
NS(=O)(=O)c1ccc(CCNC(=O)Nc2ccc(Cl)c(Cl)c2)cc1	active: 20.6 µM	
O=C(COc1ccccc1Cl)NC(=S)Nc1ccccc1N1CCCC1	inconclusive: 29.1 µM [falling, single point]	
CNC(=S)N/N=C/c1ccc2c(c1)OCCO2	inconclusive: 2.91 µM [activator, full curve, poor fit]	
O=C(NCc1ccco1)c1ccc(S(=O)(=O)N2CCCc3ccccc32)cc1	inconclusive: 11.6 µM [falling, partial curve]	
Cc1ccc(S(=O)(=O)N2CCCN(S(=O)(=O)c3ccc4c(c3)OCCO4)CC2)cc1	inconclusive: 29.1 µM [falling, single point] and inconclusive: 23.1 µM [falling, single point]	
COc1ccc(-c2n(CC(=O)OC3CC(C)CCC3C(C)C)c3ccccc3[n+]2C)cc1 (stereo unspecified)	active: 20.6 µM	
CCN(CC)S(=O)(=O)c1ccc(NCc2ccccc2)nc1	inconclusive: 18.4 µM [falling, partial curve]	
COc1ccc(-c2csc(NC(=S)NC(=O)/C=C/c3ccco3)n2)cc1OC	inconclusive: 18.4 µM [falling, single point]	
COc1ccc(C(CCN(Cc2ccc(OC)c(OC)c2)C(C)=O)C(C)C)cc1 (stereo unspecified)	inconclusive: 13 µM [falling, partial curve]	
CCCC(=O)Nc1ccc2c(c1)nc1n2CCN(CCOC)C1		inactive: -4.65%
Cc1ccc(N(C)S(=O)(=O)c2cccc(C(=O)N(C)Cc3cnn(-c4ccccc4)c3)c2)cc1	inconclusive: 29.1 µM [falling, single point]	
CCOc1ccc2nc(SCc3ccc(CC(=O)O)cc3)c(C#N)cc2c1	inconclusive: 18.4 µM [falling, single point]	
Cc1ccc2c(c1)c(=O)c1ccccc1n2CCCC(=O)Nc1ccc(Cl)c(Cl)c1	inconclusive: 32.6 µM [falling, partial curve, poor fit]	
CCOC(=O)c1ccc(N(CCC2CO2)S(=O)(=O)c2ccc(C)cc2)cc1 (stereo unspecified)		inactive: -23.3%
Cc1ccc2c(CN3CCN(Cc4ccccc4)CC3)cc(=O)oc2c1C		inactive: -0.638%
Cc1ccc(OCCSCc2nnc(NC(=O)Nc3cccc(Cl)c3)s2)cc1		inactive: -12.1%
CC(C)N(C(=O)[C@H]1CC(CC(=O)NCc2cccc(C(F)(F)F)c2)C(=O)N2CCc3c([nH]c4ccccc34)[C@]12C)C(C)C (stereo partly specified)	inconclusive: 23.1 µM [falling, single point]	
COc1cc(NC(=O)CSc2nc(-c3ccccc3)no2)cc(OC)c1	inconclusive: 16.4 µM [activator, single point]	
C=CCn1c(SCc2nc3ccccc3[nH]2)nnc1-c1ccncc1		inactive: 7.71%

SMILES	Potency	activity change, negative = inhibition
S=C(NC1CCCC1)N1CCN(c2cccc(Cl)c2)CC1	inconclusive: 18.4 µM [falling, single point]	
Cc1[nH]c(=S)sc1Cc1ccc(F)cc1		inactive: 13.4%
CCN(CC)S(=O)(=O)c1cc(NC(=O)C2Cc3ccccc3C(=O)O2)ccc1C (stereo unspecified)	inconclusive: 29.1 µM [falling, single point]	
Cc1ccc(C(=O)N2CCN(c3ncnc4c(C)csc34)CC2)cc1	inconclusive: 20.6 µM [falling, single point]	
Cc1ccc(Cl)c(OCC(=O)Nc2ccc(S(=O)(=O)NC3=NCCCCC3)cc2)c1	inconclusive: 29.1 µM [falling, single point]	
COC(=O)c1sccc1NC(=O)COc1ccc(Cl)cc1Cl	inconclusive: 1.46 µM [activator, full curve]	
CCN(CC)c1ccc(NC(=O)C2CCN(S(=O)(=O)c3ccc4c(c3)oc(=O)n4C)CC2)c(C)c1		inactive: -9.11%
Cc1ccc(S(=O)(=O)N/N=C2/CC(c3ccccc3)Oc3ccccc32)cc1 (stereo unspecified)	inconclusive: 11.6 µM [falling, partial curve, poor fit]	
N#Cc1cccc(NC(=O)CSc2nnc(-c3n[nH]c4ccccc34)o2)c1	inconclusive: 18.4 µM [activator, single point]	
CCOC(=O)[C@H]1[C@H]2COc3ccc(Cl)cc3[C@@H]2N2C(=O)CNC(=O)[C@@]12C		inactive: -3.2%
CCN(CC)C(=O)c1sc2nc(-c3ccccc3)ccc2c1N	inconclusive: 23.1 µM [activator, partial curve]	
O=C(Nc1ccc([N+](=O)[O-])cc1)Nc1cnccn1		inactive: -35.2%
Clc1ccc(-c2ccc(-c3nn4c(-c5ccco5)nnc4s3)o2)cc1	inconclusive: 9.2 µM [falling, partial curve]	
O=C(CCN1C(=O)C2CCCCC2C1=O)Nc1nc2c(F)cc(F)cc2s1 (stereo unspecified)	inconclusive: 8.2 µM [activator, partial curve, poor fit]	
Cc1cc(NC(=O)c2ccc3nccnc3c2)ccc1Br	inconclusive: 2.59 µM [activator, full curve]	
O=C(/C=C\Nc1ccc(S(=O)(=O)Nc2ncccn2)cc1)c1cccc2ccccc12	inconclusive: 29.1 µM [falling, single point]	
COC(=O)c1sc2ncccc2c1OCc1ccc(Cl)cc1Cl	inconclusive: 11.6 µM [falling, partial curve, poor fit]	
CCOC(=O)Cn1nnnc1C(C(C)C)N(Cc1cccs1)Cc1cc2cc(C)ccc2[nH]c1=O (stereo unspecified)	inconclusive: 29.1 µM [falling, single point]	
CC1(C(=O)N2CCC(CC3CC(c4cccc(Br)c4)=NO3)(C(=O)NCC3CCCCC3)CC2)CC1 (stereo unspecified)	inconclusive: 20.6 µM [falling, single point]	
CC(=O)NCCNC(=O)c1cc(-c2cccc3ccccc23)nc2ccccc12		inactive: 7.96%
COc1ccccc1N(C)S(=O)(=O)c1ccc(C(=O)Nc2cc(OC)c(OC)c(OC)c2)cc1	inconclusive: 14.6 µM [falling, single point]	
CC(C)C(=O)Nc1cccc(NC(=S)NC(=O)c2ccc3c(c2)OCO3)c1	inconclusive: 5.8 µM [activator, partial curve]	

SMILES	Potency	activity change, negative = inhibition
COc1cccc(C(=O)Nc2ccc(N(C)C)cc2)c1OC	inconclusive: 2.91 µM [activator, full curve, poor fit]	
C#CCNC(=O)C1CCN(c2cc(C)nc(-c3ccccc3)n2)CC1	inconclusive: 5.8 µM [activator, full curve, poor fit]	
COc1ccc(OC)c(NC(=O)COCc2cc(-c3ccco3)on2)c1	inconclusive: 25.9 µM [activator, partial curve, poor fit]	
CC1CCN(c2nc3ccc(C(=O)NCCCN4CCCCC4)cc3s2)CC1	inconclusive: 1.84 µM [activator, partial curve, poor fit]	
CC(/C=N\NC(=O)Cn1c(C)nc2ccccc21)=C\c1ccccc1	active: 8.2 µM	
COc1ccc(OC)c(NC(=O)C(=O)NNC(=O)COc2ccc(Br)cc2C)c1	inconclusive: 29.1 µM [falling, single point]	
Oc1c(Cl)cc(Cl)cc1C=Nc1cc(C(F)(F)F)ccc1N1CCc2ccccc2C1	inconclusive: 3.66 µM [activator, full curve]	
CCCCOC(=O)Nc1nnc(/C=C/c2ccc(OC)cc2)s1		inactive: -26.4%
Cc1ccc(NC(=O)COc2cccnc2[N+](=O)[O-])cc1S(=O)(=O)N1CCCCC1	active: 7.31 µM	
O=C(C1CC1)N1CCN(C(c2ccccc2)c2ccccc2)CC1	inconclusive: 32.6 µM [falling, partial curve, poor fit]	
O=C(COc1ccccc1)N1CCCC1		inactive: 1.22%
CCOC(=O)c1c(CSc2ccccc2)oc2ccc(O)cc12	inconclusive: 16.4 µM [falling, partial curve, poor fit]	
COc1ccc(C)cc1S(=O)(=O)Nc1cccc(Cl)c1Cl	inconclusive: 29.1 µM [falling, single point]	
CCOc1ccc(CCNC(=O)c2cc(-c3ccccc3)c(N3CCOCC3)s2)cc1OCC	inconclusive: 4.11 µM [falling, single point]	
COc1ccc(N2C(=O)/C(=C\c3ccco3)N=C2SCC(=O)NC(C)C)cc1Cl		inactive: 8.44%
CC(=O)C1(O)C(C)CC2C3CC(F)C4(O)CC(O)CCC4(C)C3CCC21C (stereo unspecified)	inconclusive: 2.59 µM [falling, partial curve, poor fit]	
FC(F)(F)c1ccccc1NC(=S)N1CCc2ccccc2C1	inconclusive: 32.6 µM [falling, single point]	
CC(C)(C)OC(=O)N1CCC(c2c(C(=O)N3CCN(c4ccccn4)CC3)cnn2-c2cccc(F)c2)CC1	inconclusive: 0.517 µM [falling, full curve]	
Cc1cc(=O)n2nc(N3CCC(C(=O)N4CCN(c5ccccc5)CC4)CC3)sc2n1	inconclusive: 25.9 µM [activator, single point]	
COC(=O)C1=CN(Cc2cccs2)C=C(C(=O)OC)C1c1cccc(OC)c1OC		inactive: 7.38%
CCN(CC)c1ccc(-c2nn3c(-c4cccnc4)nnc3s2)cc1	inconclusive: 8.2 µM [falling, partial curve]	
C=CCn1c(CNS(=O)(=O)c2ccc(Cl)cc2)n[nH]c1=S	inconclusive: 5.17 µM [falling, full curve, poor fit]	
